Results are given in words; binding and its absence hold for the method and conditions named. Some binding calls cover weakened binding; strength is not graded here.

For the assay, the target named is T1, Full-length wild-type rat TRPV2 (transient receptor potential vanilloid 2) (rat), Q9WUD2.
T1 chain: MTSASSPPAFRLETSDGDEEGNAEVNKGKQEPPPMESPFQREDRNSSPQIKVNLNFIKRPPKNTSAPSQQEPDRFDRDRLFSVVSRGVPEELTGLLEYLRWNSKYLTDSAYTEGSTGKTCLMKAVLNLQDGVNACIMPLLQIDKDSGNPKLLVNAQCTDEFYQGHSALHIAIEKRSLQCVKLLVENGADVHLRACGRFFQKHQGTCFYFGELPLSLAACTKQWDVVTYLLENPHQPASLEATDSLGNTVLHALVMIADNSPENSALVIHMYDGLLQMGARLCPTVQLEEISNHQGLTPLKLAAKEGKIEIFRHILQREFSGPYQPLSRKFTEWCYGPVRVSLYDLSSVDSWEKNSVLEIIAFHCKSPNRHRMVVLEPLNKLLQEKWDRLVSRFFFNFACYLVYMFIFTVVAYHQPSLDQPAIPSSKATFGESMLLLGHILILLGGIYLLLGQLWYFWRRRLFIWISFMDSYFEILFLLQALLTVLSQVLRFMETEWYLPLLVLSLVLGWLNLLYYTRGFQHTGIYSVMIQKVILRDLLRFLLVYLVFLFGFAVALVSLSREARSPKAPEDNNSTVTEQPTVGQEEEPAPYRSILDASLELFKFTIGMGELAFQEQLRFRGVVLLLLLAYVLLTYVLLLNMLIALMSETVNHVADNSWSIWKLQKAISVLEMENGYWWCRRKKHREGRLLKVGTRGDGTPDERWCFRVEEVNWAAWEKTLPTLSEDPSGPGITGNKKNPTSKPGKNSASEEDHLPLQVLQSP
The assay can be described thus: cryo-EM structure. As to conditions: remark: other sources report otherwise.

B1: Full-length wild-type rat TRPV2 (transient receptor potential vanilloid 2), Q9WUD2 1-761 (natural protein)
chain: MTSASSPPAFRLETSDGDEEGNAEVNKGKQEPPPMESPFQREDRNSSPQIKVNLNFIKRPPKNTSAPSQQEPDRFDRDRLFSVVSRGVPEELTGLLEYLRWNSKYLTDSAYTEGSTGKTCLMKAVLNLQDGVNACIMPLLQIDKDSGNPKLLVNAQCTDEFYQGHSALHIAIEKRSLQCVKLLVENGADVHLRACGRFFQKHQGTCFYFGELPLSLAACTKQWDVVTYLLENPHQPASLEATDSLGNTVLHALVMIADNSPENSALVIHMYDGLLQMGARLCPTVQLEEISNHQGLTPLKLAAKEGKIEIFRHILQREFSGPYQPLSRKFTEWCYGPVRVSLYDLSSVDSWEKNSVLEIIAFHCKSPNRHRMVVLEPLNKLLQEKWDRLVSRFFFNFACYLVYMFIFTVVAYHQPSLDQPAIPSSKATFGESMLLLGHILILLGGIYLLLGQLWYFWRRRLFIWISFMDSYFEILFLLQALLTVLSQVLRFMETEWYLPLLVLSLVLGWLNLLYYTRGFQHTGIYSVMIQKVILRDLLRFLLVYLVFLFGFAVALVSLSREARSPKAPEDNNSTVTEQPTVGQEEEPAPYRSILDASLELFKFTIGMGELAFQEQLRFRGVVLLLLLAYVLLTYVLLLNMLIALMSETVNHVADNSWSIWKLQKAISVLEMENGYWWCRRKKHREGRLLKVGTRGDGTPDERWCFRVEEVNWAAWEKTLPTLSEDPSGPGITGNKKNPTSKPGKNSASEEDHLPLQVLQSP
Regarding B1, the binding result is given as “binds”.

The record behind these values is paper doi:10.1101/2020.08.10.242008.
